Assay results published in paper PMC5914539.

Chains of the proteins cited; added tags and fusions are not shown. Lines headed by an entry give the natural chain unless they say otherwise; changes in a name come on top. Residues count along the entry.
UniProt P15941: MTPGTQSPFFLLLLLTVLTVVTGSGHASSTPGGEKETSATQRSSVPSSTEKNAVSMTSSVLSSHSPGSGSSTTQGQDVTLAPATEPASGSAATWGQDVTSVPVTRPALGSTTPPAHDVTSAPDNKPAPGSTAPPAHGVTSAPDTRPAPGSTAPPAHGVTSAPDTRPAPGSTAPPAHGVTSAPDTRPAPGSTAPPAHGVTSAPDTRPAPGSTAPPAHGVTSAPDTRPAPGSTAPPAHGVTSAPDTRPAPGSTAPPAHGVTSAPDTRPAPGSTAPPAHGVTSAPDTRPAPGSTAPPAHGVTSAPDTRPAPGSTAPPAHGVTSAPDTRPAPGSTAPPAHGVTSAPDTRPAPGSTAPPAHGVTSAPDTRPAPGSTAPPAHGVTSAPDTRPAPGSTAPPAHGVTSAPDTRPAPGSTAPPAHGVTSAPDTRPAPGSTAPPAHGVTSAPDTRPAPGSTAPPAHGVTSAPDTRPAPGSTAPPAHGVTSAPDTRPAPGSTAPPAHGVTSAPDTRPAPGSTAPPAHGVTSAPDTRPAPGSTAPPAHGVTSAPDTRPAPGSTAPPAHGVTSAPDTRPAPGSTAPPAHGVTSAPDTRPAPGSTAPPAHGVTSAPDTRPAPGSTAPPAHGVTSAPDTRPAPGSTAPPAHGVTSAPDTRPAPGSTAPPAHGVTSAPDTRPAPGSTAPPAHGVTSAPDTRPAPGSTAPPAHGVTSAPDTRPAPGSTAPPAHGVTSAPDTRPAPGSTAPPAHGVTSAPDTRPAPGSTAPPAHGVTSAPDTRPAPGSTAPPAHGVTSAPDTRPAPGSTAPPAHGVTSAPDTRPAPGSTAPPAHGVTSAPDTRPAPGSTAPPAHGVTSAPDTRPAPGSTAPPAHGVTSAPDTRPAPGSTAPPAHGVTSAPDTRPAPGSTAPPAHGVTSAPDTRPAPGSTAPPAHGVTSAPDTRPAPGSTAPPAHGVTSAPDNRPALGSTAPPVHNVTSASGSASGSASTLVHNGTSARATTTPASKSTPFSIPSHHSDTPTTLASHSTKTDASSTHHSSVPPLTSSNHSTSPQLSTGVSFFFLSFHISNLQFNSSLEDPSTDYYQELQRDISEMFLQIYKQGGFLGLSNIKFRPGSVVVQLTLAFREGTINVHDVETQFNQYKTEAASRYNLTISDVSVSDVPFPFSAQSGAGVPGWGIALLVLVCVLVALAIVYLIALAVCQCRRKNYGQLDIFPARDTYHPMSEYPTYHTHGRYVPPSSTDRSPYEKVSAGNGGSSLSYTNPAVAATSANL
UniProt P16422, 24-314: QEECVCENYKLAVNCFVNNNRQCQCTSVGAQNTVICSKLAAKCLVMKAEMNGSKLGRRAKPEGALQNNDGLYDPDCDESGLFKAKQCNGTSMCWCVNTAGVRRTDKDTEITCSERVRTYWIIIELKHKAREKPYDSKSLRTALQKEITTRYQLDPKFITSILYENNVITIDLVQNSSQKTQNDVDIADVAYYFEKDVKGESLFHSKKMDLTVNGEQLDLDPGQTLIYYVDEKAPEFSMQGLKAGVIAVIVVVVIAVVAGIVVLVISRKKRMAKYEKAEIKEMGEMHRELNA
UniProt P19338, 2-710: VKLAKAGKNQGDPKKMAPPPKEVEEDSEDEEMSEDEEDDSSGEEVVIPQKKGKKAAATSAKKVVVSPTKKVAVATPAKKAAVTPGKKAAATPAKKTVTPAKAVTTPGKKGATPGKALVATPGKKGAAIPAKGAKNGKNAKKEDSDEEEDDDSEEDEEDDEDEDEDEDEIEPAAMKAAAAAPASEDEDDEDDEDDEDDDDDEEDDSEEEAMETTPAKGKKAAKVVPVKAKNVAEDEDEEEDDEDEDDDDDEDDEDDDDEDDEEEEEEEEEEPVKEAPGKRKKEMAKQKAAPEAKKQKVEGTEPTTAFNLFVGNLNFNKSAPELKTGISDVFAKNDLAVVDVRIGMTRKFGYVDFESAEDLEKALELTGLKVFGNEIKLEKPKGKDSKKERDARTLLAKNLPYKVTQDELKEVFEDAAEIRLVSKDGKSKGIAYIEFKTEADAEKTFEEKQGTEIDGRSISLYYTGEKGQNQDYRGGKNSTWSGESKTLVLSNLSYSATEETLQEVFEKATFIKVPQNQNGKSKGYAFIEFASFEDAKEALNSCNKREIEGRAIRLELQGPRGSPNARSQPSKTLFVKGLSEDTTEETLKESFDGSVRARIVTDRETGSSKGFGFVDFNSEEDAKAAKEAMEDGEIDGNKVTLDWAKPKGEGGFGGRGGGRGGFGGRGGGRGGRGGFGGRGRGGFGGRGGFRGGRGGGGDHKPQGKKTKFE

Key:
[1] = biological target: mucin 1 (MUC1) (human) (UniProt P15941); test: flow cytometry; settings: A549 cells, 250 nM aptamer, also SERS imaging, MUC1-low HepG2 not stained; Flow cytometry: 250 nM FITC-aptamer, 37 C, 30 min, dPBS washes; protein on the cell surface; single-stranded DNA
[2] = biological target: epithelial cell adhesion molecule (EpCAM) (human) (UniProt P16422); test: flow cytometry; settings: 250 nM aptamer, also SERS imaging, Flow cytometry: 250 nM FITC-aptamer, 37 C, 30 min, dPBS washes, protein on the cell surface
[3] = biological target: epithelial cell adhesion molecule (EpCAM) (human) (UniProt P16422); test: SERS imaging of cells; settings: A549 and HepG2 cells, GIAN-lib; 5' thiol linked to DSPE-PEG; SERS imaging: GIAN-aptamer in dPBS, 37 C, 2.5 h; protein on the cell surface; label: GIAN SERS tag; single-stranded DNA
[4] = biological target: mucin 1 (MUC1) (human) (UniProt P15941); test: SERS imaging of cells; settings: A549 cells, GIAN-lib; 5' thiol linked to DSPE-PEG; SERS imaging: GIAN-aptamer in dPBS, 37 C, 2.5 h; protein on the cell surface; label: GIAN SERS tag; single-stranded DNA
[5] = biological target: nucleolin (human) (UniProt P19338); test: SERS imaging of cells; settings: A549 and HepG2 cells, GIAN-lib; 5' thiol linked to DSPE-PEG; SERS imaging: GIAN-aptamer in dPBS, 37 C, 2.5 h; protein on the cell surface; label: GIAN SERS tag; single-stranded DNA
[6] = biological target: nucleolin (human) (UniProt P19338); test: flow cytometry; settings: 250 nM aptamer, also SERS imaging, Flow cytometry: 250 nM FITC-aptamer, 37 C, 30 min, dPBS washes, protein on the cell surface
[7] = A549 cells, single-stranded DNA

**Q.** Does “GGGAGACAAGAATAAACGCTCAAGCAGTTGATCCTTTGGATACCCTGGTTCGACAGGAGGCTCACAACAGGC [S1.6-FITC]” bind [1]?
**A.** binds

**Q.** Which results are given for “AAAACACTACAGAGGTTGCGTCTGTCCCACGTTGTCATGGGGGGTTGGCCTG [SYL3C-FITC]”?
**A.** binding result [2, 7]: binds; binding result ([2]; HepG2 cells, single-stranded …): binds

**Q.** Does “AAAAAAAAAATTTTTTAATTATTTATATTAAT [HS-Lib (DSPE-PEG-lib)]” bind [3]?
**A.** no binding

**Q.** Does “AAAAAAAAAATTTTTTAATTATTTATATTAAT [HS-Lib (DSPE-PEG-lib)]” bind [4]?
**A.** no binding

**Q.** Does “AAAAAAAAAATTTTTTAATTATTTATATTAAT [HS-Lib (DSPE-PEG-lib)]” bind [5]?
**A.** no binding

**Q.** Does “AAAAAAAAGGTGGTGGTGGTTGTGGTGGTGGTGG [AS1411-FITC]” bind [6, 7]?
**A.** binds

**Q.** Does “AAAAAAAAGGTGGTGGTGGTTGTGGTGGTGGTGG [AS1411-FITC]” bind ([6]; HepG2 cells, single-stranded …)?
**A.** binds

The exact form of at least one protein or probe is not confirmed. Results from cells or extracts need not show a direct contact. For some assays here: Negatives hold for the conditions tested. At least one verdict was read from the data and is not stated in words by the source.
